Measured data: PubChem BioAssay AID652272 (Drosophila RNAi Screening Center, 2013)
The deposit covers about 21,000 reagents; shown is a random part of those with a known target gene and a result. Over the whole deposit, 503 (2.4%) are marked active. 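Raw plate light values, not normalised; calls rest on replicate z-scores that were not deposited; hits include reporter decreases as well as increases.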 Unmarked entries are inactive. The numbers tell different reagents against one gene apart. Names joined by + are all predicted targets of the reagent. Not given: the amount of reagent, the time to read-out.

- Assay: 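Genome-wide knock-down search for components of Hedgehog signalling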 (primary screen)
- System: Drosophila clone 8 (Cl8) cells
- Reagents: long dsRNA against Drosophila genes
- Detection: 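Plate reader light from a firefly reporter under a ptc promoter fragment that responds to Hedgehog, with Renilla light as transfection reference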
- Scale: firefly Hh reporter signal: higher = more ptc reporter light; Renilla reference signal: higher = more Renilla control light
- Call rule: 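Hit when the z-score averaged over two replicates is under -2 or over +3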
- Calls: active = hit: reporter lowered or raised; inactive = not a hit

AsnS (Asparagine synthetase) showed firefly Hh reporter signal, replicate 1 = 2.56e5; Renilla reference signal, replicate 1 = 6551.
For CG30122 #1, the values are firefly Hh reporter signal, replicate 1 = 1.46e5; firefly Hh reporter signal, replicate 2 = 92672; Renilla reference signal, replicate 1 = 6989; Renilla reference signal, replicate 2 = 4249.
Knock-down of CG30122 #2 came out at: firefly Hh reporter signal, replicate 1 = 1.24e5; firefly Hh reporter signal, replicate 2 = 58376; Renilla reference signal, replicate 1 = 3968; Renilla reference signal, replicate 2 = 5313.
With knock-down of CG33493, the record shows firefly Hh reporter signal, replicate 1 = 90116; firefly Hh reporter signal, replicate 2 = 78592; firefly Hh reporter signal, replicate 3 = 51405; Renilla reference signal, replicate 1 = 9162; Renilla reference signal, replicate 2 = 4800.
CG15870 gave firefly Hh reporter signal, replicate 1 = 90096; firefly Hh reporter signal, replicate 2 = 50365; Renilla reference signal, replicate 1 = 2073; Renilla reference signal, replicate 2 = 4345.
After knock-down of CG14406 the results were firefly Hh reporter signal, replicate 1 = 90037; firefly Hh reporter signal, replicate 2 = 1.71e5; Renilla reference signal, replicate 1 = 1697; Renilla reference signal, replicate 2 = 6976.
For CG16786, the entry reads firefly Hh reporter signal, replicate 1 = 86251; firefly Hh reporter signal, replicate 2 = 68416; Renilla reference signal, replicate 1 = 1949; Renilla reference signal, replicate 2 = 6748.
Depletion of Snap25 (Synaptosomal-associated protein 25kDa) #1 gave: firefly Hh reporter signal, replicate 1 = 1.26e5; firefly Hh reporter signal, replicate 2 = 4.10e5; Renilla reference signal, replicate 1 = 4951; Renilla reference signal, replicate 2 = 14411.
For Snap25 (Synaptosomal-associated protein 25kDa) #2, the entry reads firefly Hh reporter signal, replicate 1 = 8.99e5; firefly Hh reporter signal, replicate 2 = 3.51e5; Renilla reference signal, replicate 1 = 51732; Renilla reference signal, replicate 2 = 8275.
Obp47b + CG7741 gave firefly Hh reporter signal, replicate 1 = 99589; firefly Hh reporter signal, replicate 2 = 41840; Renilla reference signal, replicate 1 = 2349; Renilla reference signal, replicate 2 = 3100.
Tre1 (Trapped in endoderm 1) showed firefly Hh reporter signal, replicate 1 = 90480; firefly Hh reporter signal, replicate 2 = 47200; Renilla reference signal, replicate 1 = 6097; Renilla reference signal, replicate 2 = 1978.
With knock-down of RpS5a (Ribosomal protein S5a), the record shows firefly Hh reporter signal, replicate 1 = 42221 (active); firefly Hh reporter signal, replicate 2 = 41676; Renilla reference signal, replicate 1 = 2155; Renilla reference signal, replicate 2 = 2196.
After knock-down of kl-3 (retired record) #1, the record shows firefly Hh reporter signal, replicate 1 = 5.22e5; firefly Hh reporter signal, replicate 2 = 1.93e5; Renilla reference signal, replicate 1 = 29863; Renilla reference signal, replicate 2 = 4112.
For kl-3 (retired record) #2, the entry reads firefly Hh reporter signal, replicate 1 = 61241; firefly Hh reporter signal, replicate 2 = 1.99e5; Renilla reference signal, replicate 1 = 1015; Renilla reference signal, replicate 2 = 7917.
kl-3 (retired record) #3 showed firefly Hh reporter signal, replicate 1 = 5.42e5; firefly Hh reporter signal, replicate 2 = 2.18e5; Renilla reference signal, replicate 1 = 33043; Renilla reference signal, replicate 2 = 4661.
Silencing of CG12984 resulted in: firefly Hh reporter signal, replicate 1 = 1.03e5; firefly Hh reporter signal, replicate 2 = 1.20e5; Renilla reference signal, replicate 1 = 3544; Renilla reference signal, replicate 2 = 3185.
Knock-down of CG2269 resulted in: firefly Hh reporter signal, replicate 1 = 1.09e5; firefly Hh reporter signal, replicate 2 = 65387; Renilla reference signal, replicate 1 = 4912; Renilla reference signal, replicate 2 = 3323.
With knock-down of esn (espinas) #1, the record shows firefly Hh reporter signal, replicate 1 = 1.18e5; firefly Hh reporter signal, replicate 2 = 1.27e5; Renilla reference signal, replicate 1 = 2480; Renilla reference signal, replicate 2 = 5388.
Against esn (espinas) #2, the values are firefly Hh reporter signal, replicate 1 = 1.14e5; firefly Hh reporter signal, replicate 2 = 45512; Renilla reference signal, replicate 1 = 2850; Renilla reference signal, replicate 2 = 4640.
Against esn (espinas) #3, the values are firefly Hh reporter signal, replicate 1 = 93737; firefly Hh reporter signal, replicate 2 = 46487; Renilla reference signal, replicate 1 = 2338; Renilla reference signal, replicate 2 = 3431.
Against CG8010, the entry reads firefly Hh reporter signal, replicate 1 = 1.25e5; firefly Hh reporter signal, replicate 2 = 85062; Renilla reference signal, replicate 1 = 3052; Renilla reference signal, replicate 2 = 1649.

Limited to “firefly Hh reporter signal, replicate 2” (2 entries from above):
CG2269: 65387
esn (espinas) #1: 1.27e5
